Library screening results

Amino acid sequences for entries named in this document (tags omitted).
UniProt E9BF75, entry or part of it: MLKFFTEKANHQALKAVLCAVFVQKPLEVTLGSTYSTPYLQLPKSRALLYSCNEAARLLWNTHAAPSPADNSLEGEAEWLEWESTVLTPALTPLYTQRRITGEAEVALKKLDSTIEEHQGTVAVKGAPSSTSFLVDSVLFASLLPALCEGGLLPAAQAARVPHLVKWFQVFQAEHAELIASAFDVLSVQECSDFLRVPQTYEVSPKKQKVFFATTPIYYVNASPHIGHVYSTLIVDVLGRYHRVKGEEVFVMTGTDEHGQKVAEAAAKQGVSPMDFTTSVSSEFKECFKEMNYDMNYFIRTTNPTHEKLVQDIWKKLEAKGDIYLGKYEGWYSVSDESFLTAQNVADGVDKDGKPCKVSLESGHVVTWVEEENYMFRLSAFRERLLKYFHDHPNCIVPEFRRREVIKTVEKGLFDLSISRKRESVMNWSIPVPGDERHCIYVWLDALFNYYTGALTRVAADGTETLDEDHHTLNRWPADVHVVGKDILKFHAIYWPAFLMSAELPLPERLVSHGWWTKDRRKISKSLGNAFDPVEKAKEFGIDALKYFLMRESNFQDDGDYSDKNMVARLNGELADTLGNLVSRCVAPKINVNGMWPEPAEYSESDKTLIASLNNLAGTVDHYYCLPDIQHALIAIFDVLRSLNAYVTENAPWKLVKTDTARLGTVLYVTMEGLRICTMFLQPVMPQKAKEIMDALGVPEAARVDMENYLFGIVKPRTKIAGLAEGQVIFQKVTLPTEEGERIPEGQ

The values are deposited in ChEMBL (CHEMBL3988442, “University of Dundee, Small-Polar-MMV Screening Library” (2021)).

LdMetRS: 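Methionyl-tRNA synthetase (putative), Leishmania donovani (UniProt E9BF75). Primary screen of methionyl-tRNA synthetase; the read-out is not stated. The test concentration is not given. Values are per cent inhibition. About 68,000 compounds were tested under these conditions; 0.035% (about 24) showed 50% or more at least once.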
Mtb heat-shock: 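Assay on Mycobacterium tuberculosis, filed only as a heat shock assay from Cornell; the read-out is not stated. The concentration is filed as 10 mM, unlikely as a test dose, so the dose is not known. The record gives no direction; compounds that gave an IC50 in retests scored well above the rest, so higher reads as stronger inhibition. Size under these conditions: about 69,000 compounds, about 930 of them at 50% or above in at least one test.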

All values are in %. The record does not define 0% and 100%; most values in the screen are far below 50% and negative numbers occur (in some assays of this library far below -100). The compounds are a random part of those screened. A dash means the value is not listed here; it may have been measured.

compound	LdMetRS	Mtb heat-shock
Cc1nc(C)c(CNC(=O)NC(c2nnc3n2CCC3)C(C)C)s1 (stereo not shown)	20%	2.705%
CC(O)(CNS(=O)(=O)Cc1ccon1)c1ccsc1 (stereo not shown)	-18.78%	-7.882%
CN(Cc1cccnc1)C1CCCN(Cc2noc(C3CC3)n2)C1 (stereo not shown)	5.789%	-14.72%
[H][C@@]12C[C@H](c3nc(C)no3)O[C@]1([H])CCN(C(=O)Cc1ccsc1)C2	-	-14.57%
COCC1CC2(CCN(C(=O)c3occc3C)CC2)CO1 (stereo not shown)	11.76%	-15.35%
Cc1ccc(C(=O)NCCCn2cncn2)c(=O)[nH]1	6.944%	9.754%
CCC1=N[C@@]2(CC[C@@H]3CN(S(=O)(=O)CC(C)C)C[C@@H]32)C(=O)N1CC	16.31%	-
CCN(CC)c1ccc(CNC(=O)C2(C)CCOCC2)cc1F	-0.2841%	11.06%
Cc1ccc(CN2CCCn3c(nc(CN4CCCC4)cc3=O)C2)s1	13.3%	-
Nc1nc(C2CCN(C(=O)c3cnco3)CC2)cs1	14.12%	1.92%
O=C1CC(c2cccs2)Cc2[nH]c(=O)c(C(=O)NC3CCCC3)cc21 (stereo not shown)	11.69%	5.167%
CCN1C[C@@H]2CN(c3cc(OC)ncn3)CCC[C@]2(C(=O)O)C1	3.546%	-
Cc1noc(C)c1C(=O)Nc1ccc2ncn(CC(C)C)c(=O)c2c1	4.45%	-16.08%
O=C(O)C(F)(F)F.[H][C@@]12CCN(S(C)(=O)=O)[C@@]1([H])CCN2Cc1ccc2c(c1)OCO2	-	0.7324%
Cc1cc(C(=O)NC2CCCOc3cc(Cl)ccc32)n(C)n1 (stereo not shown)	9.91%	5.871%
COc1ccccc1OCC(=O)NS(=O)(=O)c1ccc(F)cc1F	9.239%	-31.49%
CCn1ncc2c1C(COCC1CC1)CN(c1ccc(C)nn1)C2 (stereo not shown)	7.104%	-
O=C(O)C(F)(F)F.c1nc(COCC2CC2)c2n1CCCN(CC1CC1)C2	-	-14.33%
Cc1cc(COC(=O)[C@@H]2Cc3ccccc3CN2S(C)(=O)=O)no1	5.962%	-15.92%
Cc1nc(CN2CCOC3(CCCN(c4nccs4)C3)C2)cs1 (stereo not shown)	5.185%	-9.094%
CC(C)Cn1cnnc1C1CCCN1C(=O)OC(C)(C)C (stereo not shown)	12.1%	-15.03%
O=C(c1nnn(-c2ccc(C(F)(F)F)cc2)n1)N1CCC(O)CC1	10.07%	13.53%
CN(C)CC1CSCCCN1C(=O)Nc1ccc(C(C)(C)C)cc1 (stereo not shown)	23.53%	8.742%
COc1ccc(CNC(=O)N2CCc3sccc3C2)cc1O	-0.6211%	-3.48%
COc1ccc(-c2nc3c([nH]2)CCNC3C(=O)O)c2ccccc12 (stereo not shown)	34.64%	-2.102%
Cc1cnc(CN2CCCC2c2noc(C(C)C)n2)cn1 (stereo not shown)	9.639%	-23.94%
O=C(NCC1CC1)c1cc2c(s1)CCN2c1ncccn1	7.273%	48.12%
COc1cc(C)nc(N2CCN(C(=O)CCc3ccsc3)CC2)n1	19.06%	14.8%
[H][C@]12CC[C@]([H])(CN(Cc3cccnc3)C1)N(Cc1cccc(O)c1)C2	-	-34.02%
Cc1cc(F)c2c(c1)CCCN2Cc1nc2c(cnn2C)c(=O)[nH]1	9.059%	20.72%
Cc1ccc(F)cc1S(=O)(=O)Nc1ccc2c(C(=O)O)c[nH]c2c1	5.682%	3.864%
Cc1nc(C)n(CC2CCCCN2CCC(=O)Nc2cc(C)on2)n1 (stereo not shown)	13.19%	16.9%
O=C(Cn1c(=O)n(Cc2ccco2)c2ncccc21)NC1CCCC1	5.412%	2.919%
CNC(=O)[C@@H]1[C@@H](c2ccccc2)CN2CCN(Cc3ccco3)C[C@H]12	0.8219%	-
CCOCc1cnc2n1CCN(C(=O)c1cccc3c1OCCO3)C2C (stereo not shown)	7.625%	51.66%
Cc1cc(C)n(CC2CN(Cc3ccc4c(c3)OCCO4)CCO2)n1 (stereo not shown)	10.63%	-2.401%
Cc1cc(C)cc(OCCC(=O)NC2CC(=O)N(C)C2)c1 (stereo not shown)	6.015%	-4.845%
CCOCCC(=O)NC(c1noc(C)n1)c1ccccc1F (stereo not shown)	17.22%	-107.1%
O=C(NCC1CC1)[C@H]1CC[C@@H]2[C@@H](CCN2Cc2nccs2)O1	12.18%	-
Cc1cc(C)c2c(N3CCC(O)(Cn4ccnc4)CC3)ncnc2n1	13.19%	4.219%
CC(Cn1ccnc1)NC(=O)N(C)Cc1ccc2c(c1)OCCO2 (stereo not shown)	7.831%	-12.8%
O=C(O)C(F)(F)F.[H][C@]12CCC(=O)N(c3cccnc3)[C@@]1([H])CCN2C(=O)CC1CC1	-	-6.311%
Cc1cc(-c2cc(N)c(=O)n(CC(=O)NCC3CCCCC3)n2)c(C)o1	7.767%	-17.2%
CS(=O)(=O)N1CCCCC12CCCN(Cc1nccs1)C2 (stereo not shown)	5.882%	-
Cn1cncc1CNC1CC2(CCN(S(C)(=O)=O)CC2)c2ccccc21.O=C(O)C(F)(F)F (stereo not shown)	-	-38.93%
COc1cccc(NC(C(N)=O)c2ccc(Br)cc2)c1 (stereo not shown)	8.871%	34.74%
CN(C)CCN1CCC(CNCc2c[nH]nc2C(C)(C)C)CC1	3.989%	-22.75%
CC1CN(c2ccc(CNC(=O)NCCO)cn2)CCO1 (stereo not shown)	11.87%	-12.54%
Cl.NC(=O)COc1ccc(CNCc2cc(F)ccc2F)cc1	-	-36.29%
c1cncc(COCC2C[C@@H]3OCCN(Cc4cccnc4)[C@H]3C2)c1 (stereo partly shown)	17.49%	-
CCN(Cc1ccccc1)Cc1nc2c(cnn2C)c(=O)[nH]1	11.05%	-15.06%
Cc1n[nH]c(C)c1CCN(C)C(=O)c1ccc(CN2CCCCC2)cc1	7.599%	-17.24%
Cc1cc(Cl)c2c(c1)C1(NC(=O)c3cccnc3N1)C(=O)N2 (stereo not shown)	3.846%	10.61%
O=C(NCc1ccco1)[C@H]1CC[C@@H]2[C@@H](CCN2C2CCC2)O1	18.16%	-
[H][C@@]12CCCN1CCCN(C(=O)c1cnc(-c3ccc(C)cc3)nc1O)C2	-	-11.34%
Cn1cnc2c1C(COCC1CC1)CN(C(=O)c1cscn1)C2 (stereo not shown)	15.6%	-
CC(=O)N1CCCC1c1nnn2cc(-c3ccncc3)ccc12 (stereo not shown)	5.674%	-
COc1ncccc1C(=O)N1CCC(CNC(C)=O)CC1	14.63%	7.186%
Cc1nccn1C1CCCN(C(=O)c2cccc3c2OCO3)C1 (stereo not shown)	21.65%	-4.515%
NCC(c1ccc(Cl)cc1)N1CCc2sccc2C1 (stereo not shown)	7.726%	22.77%
CCOCC1CN(C(=O)COc2ccccc2)Cc2cn(C)nc21 (stereo not shown)	14.18%	11.96%
CCc1[nH]c2c(CNc3cc(C)nc(NC)n3)cc(C)cc2c1C	32.01%	100.4%
Clc1ccc(C(CNCc2cccnc2)n2cccn2)cc1 (stereo not shown)	7.547%	1.491%
Cn1cnc2c1CCN(CCCc1ccccc1)C2	23.08%	8.155%
CC(NC(=O)NCCCn1ccnc1)c1ccc2c(c1)OCCCO2 (stereo not shown)	5.397%	23.05%

Once more, the final 4:

* CCc1[nH]c2c(CNc3cc(C)nc(NC)n3)cc(C)cc2c1C : LdMetRS: 32.01%; Mtb heat-shock: 100.4%
* Clc1ccc(C(CNCc2cccnc2)n2cccn2)cc1 (stereo not shown) : LdMetRS: 7.547%; Mtb heat-shock: 1.491%
* Cn1cnc2c1CCN(CCCc1ccccc1)C2 : LdMetRS: 23.08%; Mtb heat-shock: 8.155%
* CC(NC(=O)NCCCn1ccnc1)c1ccc2c(c1)OCCCO2 (stereo not shown) : LdMetRS: 5.397%; Mtb heat-shock: 23.05%